Data published in PubChem BioAssay AID504648 (National Center for Advancing Translational Sciences (NCATS), 2011).
Hit rate of the full screen: of about 390,000 compounds, about 610 (0.16%) were called active. This list was built around the results that the source calls inconclusive (neither active nor inactive); the mix of calls is not that of the screen. Calls come from the whole dose curve; as a rule, active = well fitted inhibition curve with a large enough effect; inconclusive = small, poorly fitted or top-dose-only effect, or effect the other way, or another doubt; inactive = no such curve, though single readings can be large or run the other way. Potencies beside an inconclusive call are fits to weak or partial responses and may not hold up.

Assay: Nrf2 qHTS screen for inhibitors: counterscreen for cytotoxicity
Conditions: A549 ARE-Fluc cells, CellTiter-Fluor viability, 18-24 h; activity change, negative = cytotoxicity: at 46 µM (top of the series)
Outline: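 A549 ARE-Fluc cells in 5% FBS OPTI-MEM, 5000 cells/well, rested 2 h then exposed to compounds in concentration-response for 18-24 h at 37 °C. Viability by CellTiter-Fluor fluorescence (Ex 405/Em 525) after 30 min; luciferase luminescence (BugLite, 15 min, RT) read afterwards.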
% is set by controls: 0 for no effect and ±100 for the full control effect; potency is the fitted concentration of half-maximal effect.

Compound	Potency	activity change, negative = cytotoxicity
COc1ccc(-c2nc(CN3CCC(C(=O)NCCCN4CCN(c5ccccc5F)CC4)CC3)c(C)o2)cc1OC	inconclusive: 29.1 µM [falling, single point]	–
Cc1ccc(C(=O)CCC(=O)OCC(=O)N(CC(C)C)c2c(N)n(Cc3ccccc3)c(=O)[nH]c2=O)cc1	–	inactive: 18.9%
CCCCN(CC)CCNc1c(N2CCN(C(=O)OCC)CC2)c(=O)c1=O	inconclusive: 3.66 µM [activator, single point]	–
CCc1ccc(NC(=O)COc2ccc(/C=C(/C#N)c3nc4ccccc4[nH]3)cc2OC)cc1	inconclusive: 23.1 µM [activator, single point]	–
CC1=CC(C)(C)NC(=S)N1c1ccc(C)cc1	inconclusive: 16.4 µM [falling, single point]	–
Cc1ccc(NC(=O)C(=O)NCCOc2ccccc2Cl)cc1	inconclusive: 18.4 µM [falling, single point]	–
CCOc1cc(/C=C2/C(=O)ON=C2C)ccc1OCc1ccccc1F	inconclusive: 3.66 µM [falling, full curve, poor fit]	–
Cc1cccc(C)c1OCc1cc(C(=O)N2CCN(c3ccccc3)CC2C)no1 (stereo not given)	inconclusive: 0.164 µM [activator, full curve, poor fit]	–
COc1ccc(C(=O)N(Cc2ccco2)Cc2cccs2)cc1	–	inactive: -1.72%
CC(=O)N1CC(C)Sc2ccc(S(=O)(=O)NCCc3ccc(C)cc3)cc21 (stereo not given)	–	inactive: -11.2%
Cc1cc2ccccc2n1CCNC(=O)COc1ccccc1	–	inactive: -13%
COc1ccc2c(c1)-c1c(ssc1=S)C(C)(C)N2S(=O)(=O)c1ccc(C)cc1	inconclusive: 16.4 µM [falling, partial curve]	–
Cc1cccc(C(=O)N(CCc2ccccc2)Cc2ccccc2)c1[N+](=O)[O-]	inconclusive: 23.1 µM [falling, single point]	–
COc1cccc(Cn2c(-c3nonc3N)nc3ccccc32)c1	inconclusive: 5.17 µM [falling, partial curve, poor fit]	–
CCOC(=O)c1ccc(NC(=O)C(C)Sc2nc(O)c(-c3ccccc3)c(=O)[nH]2)cc1 (stereo not given)	inconclusive: 32.6 µM [activator, partial curve, poor fit]	–
N#Cc1ccccc1CN1C(=O)NC(Cc2c[nH]c3ccccc23)C1=O (stereo not given)	inconclusive: 16.4 µM [falling, partial curve]	–
CCN(CC)c1ccc(-c2nn3c(-c4ccccc4OC)nnc3s2)cc1	inconclusive: 23.1 µM [falling, partial curve]	–
CC1CCC2(CC1)NC(=O)N(CC(=O)NCc1ccc(Cl)cc1)C2=O (stereo not given)	inconclusive: 5.17 µM [falling, partial curve, poor fit]	–
Cc1ccc(-c2noc(CSc3ccccc3)n2)cc1	inconclusive: 8.2 µM [activator, partial curve, poor fit]	–
CC(C)CN=Cc1c(O)c([N+](=O)[O-])cc2oc3c(c12)CCCC3	inconclusive: 20.6 µM [falling, single point]	–
O=C(Nc1ccccc1)Nc1ccc(Br)c(Cl)c1	inconclusive: 14.6 µM [falling, partial curve]	–
CN1c2ccccc2-c2nc(SCC(=O)Nc3ccccc3C(F)(F)F)ncc2S1(=O)=O	–	inactive: -12.2%

Entries above that contain a furan ring, fused or not (2):
Compound	Potency	activity change, negative = cytotoxicity
COc1ccc(C(=O)N(Cc2ccco2)Cc2cccs2)cc1	–	inactive: -1.72%
CC(C)CN=Cc1c(O)c([N+](=O)[O-])cc2oc3c(c12)CCCC3	inconclusive: 20.6 µM [falling, single point]	–

Random excerpt: 3 records from the list, in no set order.
Compound	Potency	activity change, negative = cytotoxicity
CCCCN(CC)CCNc1c(N2CCN(C(=O)OCC)CC2)c(=O)c1=O	inconclusive: 3.66 µM [activator, single point]	–
O=C(Nc1ccccc1)Nc1ccc(Br)c(Cl)c1	inconclusive: 14.6 µM [falling, partial curve]	–
CN1c2ccccc2-c2nc(SCC(=O)Nc3ccccc3C(F)(F)F)ncc2S1(=O)=O	–	inactive: -12.2%

The listing continues.

Compound	Potency	activity change, negative = cytotoxicity
CCN1/C(=C/c2ccc3cccc(C)c3[n+]2CC)Sc2ccccc21	inconclusive: 29.1 µM [falling, single point]	–
Fc1ccc(-c2nnc(NC3=NCCCCC3)o2)cc1	–	inactive: 25.6%
COc1ccccc1C(=O)NCC1CCN(c2ccc(S(=O)(=O)N3CCOCC3)cc2)CC1	inconclusive: 20.6 µM [falling, single point]	–
S=c1[nH]nc(-c2ccccc2)n1/N=C/c1ccc(-c2ccccc2Cl)o1	inconclusive: 20.6 µM [falling, partial curve, poor fit]	–
CC(=O)Oc1c(S(=O)(=O)c2ccc(C)cc2)c(C)nn1C(C)(C)C	inconclusive: 29.1 µM [falling, single point]	–
O=[N+]([O-])c1ccc(N2CCN(C(=S)Nc3ccc(F)cc3F)CC2)cc1	inconclusive: 23.1 µM [falling, single point]	–
COCCCn1c(C)cc(C(=O)COC(=O)C23CC4CC(CC(O)(C4)C2)C3)c1C	–	inactive: 2.37%
CCn1c(SCC(=O)Nc2ccc3c(c2)oc2ccccc23)nnc1-c1ccc(N)cc1	inconclusive: 29.1 µM [falling, single point]	–
O=C(Nc1ccc(CN2CCOCC2)cc1)c1ccc(-c2cc(Cl)ccc2Cl)o1	inconclusive: 32.6 µM [falling, partial curve, poor fit]	–
Cc1ccc(CN2CC(C(=O)Nc3ccc(C)c(S(=O)(=O)N4CCCCC4)c3)CC2=O)cc1 (stereo not given)	inconclusive: 16.4 µM [falling, single point]	–
O=C(Nc1ccc(OC(F)F)cc1)Nc1cccc(C(F)(F)F)c1	inconclusive: 23.1 µM [falling, single point]	–
COc1ccc(CN2CCN(Cc3nc4ccccc4s3)CC2CCO)c(C)c1C (stereo not given)	inconclusive: 29.1 µM [falling, single point]	–
Cc1ccc(C(=O)NCCCNC(=O)COc2ccc(Cl)cc2)cn1	–	inactive: 2.16%
CCOC(=O)C1CCCN(c2nc3ccccc3nc2C(C#N)C(=O)OCC)C1 (stereo not given)	inconclusive: 23.1 µM [falling, partial curve, poor fit]	–
Cc1ccnc2nc(C(=O)NC3CCCc4ccccc43)nn12 (stereo not given)	inconclusive: 5.8 µM [activator, partial curve, poor fit]	–
CCOC(=O)c1sc2ccccc2c1S(=O)(=O)Nc1cccc(C(F)(F)F)c1	inconclusive: 29.1 µM [falling, partial curve, poor fit]	–
CN(C)CCCN(C(=O)c1ccc2c(c1)CCCC2)c1nc2c(F)cccc2s1	inconclusive: 23.1 µM [falling, single point]	–
O=C(COC(=O)CCCSc1nc2ccccc2[nH]1)Nc1ccc(Cl)cc1	inconclusive: 20.6 µM [activator, single point]	–
O=C(Cn1c(Cc2ccccc2)nc2ccccc21)NCc1ccc2c(c1)OCO2	inconclusive: 32.6 µM [falling, partial curve, poor fit]	–
COC(=O)c1cc(OC)c(OC)cc1NC(=O)CC1CCCCC1	–	inactive: -19.5%
CCOC(=O)/C(C#N)=C/C=C1/C=CC=CN1C	inconclusive: 20.6 µM [falling, single point]	–
COc1ccccc1-c1csc2ncnc(Sc3nnnn3C)c12	inactive	–

Compound	Potency	activity change, negative = cytotoxicity
CSCCC(NS(=O)(=O)c1cccc(C(F)(F)F)c1)C(=O)Nc1ccccc1N1CCCC1 (stereo not given)	–	inactive: -3.7%
COc1ccc(Nc2ncc(C(=O)N3CCN(Cc4ccccc4)CC3)c3ccccc23)cc1	inconclusive: 29.1 µM [falling, single point]	–
C#CCOCCOCCOCCNc1nc(N2CCN(C(=O)CCCCCCCCCCNC(=O)[C@H](CO)n3cc(CCCSC)nn3)CC2)nc(N2CCN(C(=O)CCCCCCCCCCNC(=O)[C@H](CCCN=C(N)N)n3cc(C[C@@H](C)CC)nn3)CC2)n1	inconclusive: 29.1 µM [falling, single point]	–
Cc1cc(C)c(NC(=O)c2cccc3c2C(=O)N(C2CCCCC2)C3)c(C)c1	inconclusive: 32.6 µM [falling, partial curve, poor fit]	–
COc1cc(/C=C(\C#N)c2nc3ccc(C)cc3[nH]2)cc([N+](=O)[O-])c1O	active: 20.6 µM	–
COc1ccc(-c2nc(Cn3c(SCc4ccc(F)cc4)nc4ccncc43)c(C)o2)cc1OC	inconclusive: 16.4 µM [falling, single point]	–
COC(=O)CCCC1=CC2=CC(=O)C(C)(OC(=O)c3cccs3)C(=O)C2=CN1CCc1c[nH]c2ccccc12 (stereo not given)	inconclusive: 18.4 µM [falling, partial curve, poor fit]	–
O=C(NC(=C(Cl)Cl)S(=O)(=O)c1ccc(Cl)cc1)c1ccccc1	inconclusive: 29.1 µM [falling, single point]	–
O=C(NCc1cccc(F)c1)C1=Cc2cc(Br)ccc2OC1	–	inactive: 12.8%
Nc1ncnc2nc(SCc3ccc(Cl)cc3Cl)[nH]c12	–	inactive: -7.29%
Oc1[nH]c(=S)sc1C=C1N=c2ccccc2=N1	inconclusive: 20.6 µM [falling, single point]	–
CC(N=C1NS(=O)(=O)c2ccccc21)C(=O)NCc1ccc(F)cc1 (stereo not given)	–	inactive: 6.11%
O=C(/C=C/C(Cl)(Cl)Cl)Nc1ccc(Cl)cc1	–	inactive: -2.39%
O=C(Cc1cccs1)Nc1cccc(-c2nc3cc4ccccc4cc3[nH]2)c1	inconclusive: 29.1 µM [falling, single point]	–
CCN(Cc1ccc2c(c1)OCCO2)C(=O)CSc1nc(C)nc2sc(C)c(C)c12	–	inactive: -3.78%
CCOC(=O)C1=C(N)n2c(s/c(=C\c3cccs3)c2=O)=C(C(=O)OCC)C1c1cccs1 (stereo not given)	inconclusive: 6.51 µM [falling, partial curve, poor fit]	–
COc1ccccc1NC(=O)Cn1nnc(-c2ccccc2NS(=O)(=O)c2ccccc2)n1	–	inactive: -18.6%
CCCCN(CC)CCNC(=O)c1cc2c(-c3ccc(Cl)cc3)nn(C)c2s1	inconclusive: 23.1 µM [falling, partial curve, poor fit]	–
COc1ccccc1/C=C/c1nc(C#N)c(N2CCCCCC2)o1	inconclusive: 29.1 µM [activator, single point]	–
Cc1ccc(/C(N)=N/OC(=O)N2CCOCC2)cc1	inconclusive: 29.1 µM [falling, single point]	–
COC(=O)/C(=C\Nc1ccc(Cl)cc1Cl)NC(=O)c1ccc(OC)cc1	inconclusive: 18.4 µM [falling, partial curve, poor fit]	–
